Measurements: PMC8546589

T1: Myc-EhRdRP2 (E. histolytica) (UniProt C4M631)
T1 sequence: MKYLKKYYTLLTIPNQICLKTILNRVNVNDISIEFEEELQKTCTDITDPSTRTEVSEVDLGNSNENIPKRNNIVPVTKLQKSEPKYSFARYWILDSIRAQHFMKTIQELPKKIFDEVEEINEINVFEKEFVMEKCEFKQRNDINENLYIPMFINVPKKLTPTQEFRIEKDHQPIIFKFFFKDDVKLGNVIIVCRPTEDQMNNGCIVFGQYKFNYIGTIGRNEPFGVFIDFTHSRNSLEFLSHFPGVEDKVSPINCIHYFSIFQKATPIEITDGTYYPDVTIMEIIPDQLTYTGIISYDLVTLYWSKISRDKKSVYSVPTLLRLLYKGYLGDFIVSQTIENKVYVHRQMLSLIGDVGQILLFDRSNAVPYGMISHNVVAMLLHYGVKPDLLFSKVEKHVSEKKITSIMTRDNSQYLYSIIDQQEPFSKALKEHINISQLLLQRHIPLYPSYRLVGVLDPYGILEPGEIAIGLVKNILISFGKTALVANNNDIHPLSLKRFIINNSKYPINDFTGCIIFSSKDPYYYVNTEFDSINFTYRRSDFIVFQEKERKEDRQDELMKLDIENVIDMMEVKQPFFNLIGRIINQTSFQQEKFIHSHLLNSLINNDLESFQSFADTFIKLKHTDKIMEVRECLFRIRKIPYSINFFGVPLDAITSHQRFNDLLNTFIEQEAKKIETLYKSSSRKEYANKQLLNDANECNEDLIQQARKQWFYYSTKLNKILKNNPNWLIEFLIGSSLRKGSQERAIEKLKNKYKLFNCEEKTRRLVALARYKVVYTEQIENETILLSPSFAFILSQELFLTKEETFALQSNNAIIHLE

T2: Myc-EhRdRP1 (E. histolytica) (UniProt C4M6W7)
T2 sequence: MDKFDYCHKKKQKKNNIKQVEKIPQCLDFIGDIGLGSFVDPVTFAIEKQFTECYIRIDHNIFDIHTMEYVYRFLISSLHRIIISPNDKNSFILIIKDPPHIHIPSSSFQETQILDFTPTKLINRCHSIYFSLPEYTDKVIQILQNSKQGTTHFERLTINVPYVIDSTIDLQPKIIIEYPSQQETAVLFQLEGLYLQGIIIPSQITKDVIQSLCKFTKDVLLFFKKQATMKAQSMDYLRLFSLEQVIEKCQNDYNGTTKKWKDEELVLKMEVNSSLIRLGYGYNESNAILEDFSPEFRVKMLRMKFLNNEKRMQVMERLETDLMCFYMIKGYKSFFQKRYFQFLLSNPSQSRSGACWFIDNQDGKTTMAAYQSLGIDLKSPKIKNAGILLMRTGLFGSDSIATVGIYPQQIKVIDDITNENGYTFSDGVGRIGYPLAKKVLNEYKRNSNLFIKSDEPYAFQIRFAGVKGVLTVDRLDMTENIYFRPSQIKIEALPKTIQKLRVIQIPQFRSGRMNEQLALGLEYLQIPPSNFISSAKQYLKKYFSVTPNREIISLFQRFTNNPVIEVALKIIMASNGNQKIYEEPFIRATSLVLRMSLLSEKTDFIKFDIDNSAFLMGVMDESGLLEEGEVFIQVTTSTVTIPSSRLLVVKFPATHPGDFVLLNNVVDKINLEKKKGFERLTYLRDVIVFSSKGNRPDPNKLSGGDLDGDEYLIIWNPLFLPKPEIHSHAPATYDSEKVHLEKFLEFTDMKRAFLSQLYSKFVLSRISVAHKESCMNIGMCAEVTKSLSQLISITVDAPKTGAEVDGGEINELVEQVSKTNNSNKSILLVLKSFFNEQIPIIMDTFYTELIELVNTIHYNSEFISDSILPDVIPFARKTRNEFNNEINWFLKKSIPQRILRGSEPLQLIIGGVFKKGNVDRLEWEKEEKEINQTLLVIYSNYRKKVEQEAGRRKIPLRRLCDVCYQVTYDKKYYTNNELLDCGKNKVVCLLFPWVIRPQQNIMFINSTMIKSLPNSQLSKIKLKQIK

T3: Myc-EhAgo2-2 (E. histolytica) (UniProt C4LVV2)
T3 sequence: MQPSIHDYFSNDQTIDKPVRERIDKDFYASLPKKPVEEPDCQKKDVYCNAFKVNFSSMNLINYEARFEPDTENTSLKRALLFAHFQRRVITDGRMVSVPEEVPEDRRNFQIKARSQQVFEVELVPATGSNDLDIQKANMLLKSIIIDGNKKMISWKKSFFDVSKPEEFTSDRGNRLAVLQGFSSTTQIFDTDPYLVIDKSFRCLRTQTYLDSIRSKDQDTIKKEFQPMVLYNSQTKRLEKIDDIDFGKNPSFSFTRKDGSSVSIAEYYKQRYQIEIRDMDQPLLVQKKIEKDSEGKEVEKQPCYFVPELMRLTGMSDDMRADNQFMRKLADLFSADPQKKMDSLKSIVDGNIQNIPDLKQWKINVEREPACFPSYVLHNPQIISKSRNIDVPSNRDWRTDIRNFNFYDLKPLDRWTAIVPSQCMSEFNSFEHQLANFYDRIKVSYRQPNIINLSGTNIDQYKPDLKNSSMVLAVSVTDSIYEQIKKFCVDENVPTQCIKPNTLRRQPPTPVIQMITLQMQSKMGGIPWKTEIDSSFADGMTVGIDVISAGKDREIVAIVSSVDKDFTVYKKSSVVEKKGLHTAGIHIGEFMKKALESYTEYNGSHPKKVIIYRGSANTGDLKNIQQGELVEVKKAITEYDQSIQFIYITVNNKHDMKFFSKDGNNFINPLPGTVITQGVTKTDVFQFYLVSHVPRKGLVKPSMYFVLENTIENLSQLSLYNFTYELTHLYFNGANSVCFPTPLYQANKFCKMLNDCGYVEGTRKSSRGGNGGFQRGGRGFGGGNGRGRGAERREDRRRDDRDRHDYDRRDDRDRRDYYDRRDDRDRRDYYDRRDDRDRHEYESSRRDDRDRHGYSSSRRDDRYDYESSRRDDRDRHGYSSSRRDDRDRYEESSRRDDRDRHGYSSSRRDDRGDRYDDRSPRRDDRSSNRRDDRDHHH

B1: RecQ helicase (enzyme, UniProt C4M4V5 1-1182)
chain: MGETITNLEEELNEVRKEQMKYQKNRMRGYGEKVRKQGIRYIIGEKMKIGIMEEFIENKKRTEDIIRKMEMIGCKKKEEKKEEKKEEKKKMNKNALLIEQVIQTTDIEEIKDKEEIKDKEEIKDKEEIKDKEEIGKESIEISDEFLQEILGEKEEREQHNTYENIDMNEELEDIKMDEEVKENKPNKEIEEVEEIEMSEENKNEEEDIKISLMEINEEEKDMINLVSEEKLIFEGTEQKEQEVISIEDEIGSVEEILEKMEEEEKEREKEIKELEGGDEQKEIEMLEQDEMFKYLSQRGKEELEHIKGYLQKRIELIEKEIEKDIEEGKDQEKDEKVEKKNKENEEMRKIELIIKKGKYYQEENNSKEEEIKEENNNNNNKEGVIEEEIKYKEISEGGKYYVWKLGEFLKRNPGAQKYKEKKDIRVNGIKKFASIDSDWEKQEFSWKENIKKCNNTVFGNDSFRPSQEAIINCVMSRNNALVLMPTGGGKSLCYQLPSYFIKGITLVVSPLVSLIQDQVSNLVETGMEAIAFYSGSSSEDAKQFYKESYQKEGKCTIKFVFVTPERITQSKSFKEALNRYYENNNFGMVVIDEAHCISQWGHDFRDSYQKLSVFSQEYPGIPILMLTATATERVKNDILLSLGINEAVVFSQSFNRKNLTYCVRPKTKGVIDEIEEMIKRKYKGQSGIIYCLSQKNTMDIAQELNKRGIKSKYYHAGMDTKERTTVQKEWCDGEFNVICATIAFGMGIDKPDVRFVIHHSLPKSLEGYYQESGRAGRDGEPADCILYYNYRDKYTYERFFEKDKENNGDLSHIQTARNNLNEVISYCENTVDCRRTLVLQYFGEVFNSKLCNRTCDNCYNPSPTEVIDMTELGKIAVEIVRAHQRITANMVIGIMRGTSTMGKKFGETSKGFKSAKGKTEQVMERFMKVMYLEKVLSEMLIINSHGSISVYLKEGPKCKELMEGKIKIKVKCKKGANQIVEINNGIKMSEYQNSLMDKLNELRDQIFEEVRKQPGKEQLLKHNLFGTRVLKKIAAVMPRNKQEFEQIAMKRLLKEKYAERFISVVNNFINQHSSNSLNTSSFNPIKRTNPIKVDFNRKSGIRDNSDESIFDGIDLDEFADDDNATSDNNLEMTNPTIPSKKSIKKSSKKSIKKSIKKSIKKSIKKASKKSTNSSSNGIQPML

What was measured:
Test in all cases: affinity purification with mass spectrometry; anti-c-Myc agarose IP from whole-cell lysate of E. histolytica lines overexpressing the Myc-tagged bait (EhAgo2-2 WT, its two mutants, EhRdRP1, EhRdRP2), 2 h at 4°C, six low-stringency washes; LC-MS/MS in triplicate; nonribosomal hits in at least 2 of 3 data sets, exclusive or ≥3-fold enriched against the Luc control
[1] = molecular target: T1, Myc-EhRdRP2 (E. histolytica)
[2] = molecular target: T2, Myc-EhRdRP1 (E. histolytica)
[3] = molecular target: T3, Myc-EhAgo2-2 (E. histolytica)

Molecule | binding [1] | binding [2] | binding [3]
EBP-2 | binds | – | –
NBP-2 | binds | – | –
B1 | – | binds | binds

Results are given in words; binding and its absence hold for the method and conditions named. Binding seen in cells or lysates may run through a third protein. Here binding means that the protein was enriched with, or labelled near, the bait; the list need not be complete. Sequences can lack the tags named with a protein.
